The values that follow come from publication PMC7381282.

This experiment has as its target flag-pig-HSPA8 (pig). Briefly: co-IP; 293T cells cotransfected; flag-tagged HSPA8 immunoprecipitated with flag antibody, Sepharose A/G beads; Western blot with anti-flag and anti-GFP. In general terms: A western blot detects proteins with antibodies after separation by electrophoresis.

Results are given in words; binding and its absence hold for the method and conditions named. Binding seen in cells or lysates may run through a third protein. Binding calls can cover weak binding; strength is not graded here. Where a sequence is shown, tags or fusion partners need not be part of it.

B1: EGFP-C3-M41-RBD (domain or fragment, UniProt P12651 19-272)
chain: ALYDSSSYVYYYQSAFRPPNGWHLHGGAYAVVNISSESNNAGSSPGCIVGTIHGGRVVNASSIAMTAPSSGMAWSSSQFCTAHCNFSDTTVFVTHCYKYDGCPITGMLQKNFLRVSAMKNGQLFYNLTVSVAKYPTFKSFQCVNNLTSVYLNGDLVYTSNETTDVTSAGVYFKAGGPITYKVMRKVKALAYFVNGTAQDVILCDGSPRGLLACQYNTGNFSDGFYPFINSSLVKQKFIVYRENSVNTTFTLHNF
B1: the binding result is reported as “binds”.
